{"source": "patent US20260176254A1", "about": "“INHIBITORS OF PROSTATE SPECIFIC MEMBRANE ANTIGEN AND USE THEREOF” (SHANGHAI SINOTAU BIOTECH. CO., LTD, priority 2023, published 2026)", "test_system": "LnCAP CDX xenograft tumor", "assay": "Tumor inhibition efficacy in LnCAP CDX xenograft mouse model", "format": "in vivo", "details": "LnCAP CDX xenograft mice; 3.7, 7.4 and 18.5 MBq; vs 7.4 and 18.5 MBq [^177Lu]Lu-PSMA-617", "note": "Part of at least one peptide drawing is inferred or uncertain, most often the ends."}
{"smiles": "O=C(O)CN1CCN(CC(=O)O)CCN(CC(=O)NC23CCC(Nc4c(N[C@@H](Cc5c6ccccc6cc6ccccc56)C(=O)NCCCC[C@H](NC(=O)N[C@@H](CNC(=O)C(=O)O)C(=O)O)C(=O)O)c(=O)c4=O)(CC2)CC3)CCN(CC(=O)O)CC1", "note": "[[^177Lu]Lu-E8, metal not drawn]", "values": [{"measurement": "Tumor inhibition efficacy (tumor volume or tumor weight)", "value": "inhibited tumor growth in a dose dependent way, and more strikingly than [^177Lu]Lu-PSMA-617"}]}
